# Assay results: publication PMC7410302
# Molecular target: Sgg-PB tagged with 3xFLAG-StrepTagII-mVenus-StrepTagII (FSVS) (D. melanogaster (endogenous in embryos))
# Assay: affinity purification with mass spectrometry; iPAC-MS: lysate of 8-20 hr embryos with endogenously tagged Sgg, divided into three (6 mg total protein per pulldown) and purified independently on ANTI-FLAG M2 affinity gel, Strep-Tactin Superflow resin and anti-GFP mAb agarose; 2 h at 4°C; extraction buffer 50 mM Tris pH 7.5, 125 mM NaCl, 1.5 mM MgCl2, 1 mM EDTA, 5% glycerol, 0.4% Igepal CA-630, 0.5% digitonin, 0.1% Tween 20; LC-MS/MS, label-free quantification, QProt against the w1118 control; enriched with at least two of the three tags at FDR < 0.05
row,Binder,binding
1,"Fasciclin 1 (protein, UniProt P10674 22-625) DLADKLRDDSELSQFYSLLESNQIANSTLSLRSCTIFVPTNEAFQRYKSKTAHVLYHITTEAYTQKRLPNTVSSDMAGNPPLYITKNSNGDIFVNNARIIPSLSVETNSDGKRQIMHIIDEVLEPLTVKAGHSDTPNNPNALKFLKNAEEFNVDNIGVRTYRSQVTMAKKESVYDAAGQHTFLVPVDEGFKLSARSSLVDGKVIDGHVIPNTVIFTAAAQHDDPKASAAFEDLLKVTVSFFKQKNGKMYVKSNTIVGDAKHRVGVVLAEIVKANIPVSNGVVHLIHRPLMIIDTTVTQFLQSFKENAENGALRKFYEVIMDNGGAVLDDINSLTEVTILAPSNEAWNSSNINNVLRDRNKMRQILNMHIIKDRLNVDKIRQKNANLIAQVPTVNNNTFLYFNVRGEGSDTVITVEGGGVNATVIQADVAQTNGYVHIIDHVLGVPYTTVLGKLESDPMMSDTYKMGKFSHFNDQLNNTQRRFTYFVPRDKGWQKTELDYPSAHKKLFMADFSYHSKSILERHLAISDKEYTMKDLVKFSQESGSVILPTFRDSLSIRVEEEAGRYVIIWNYKKINVYRPDVECTNGIIHVIDYPLLEEKDVVVA",binds
2,"Cabeza (protein, UniProt Q27294 1-399) MERGGYGGGSGQGYNNFAVPPPNYQQMPNKTGNYNEPPPNYGKQGGGYDSGSGHRGSGGSGNGGGGGGSWNDRGGNSYGNGGASKDSYNKGHGGYSGGGGGGGGGGGGGSGGNDMITQEDTIFVSGMDPSTTEQDIETHFGAIGIIKKDKRTMKPKIWLYKNKETGASKGEATVTYDDTNAAQSAIEWFDGRDFNGNAIKVSLAQRQNNWNKGGGGGGGGGGRGGFGGRRGGGGGGGGGGGGGGRFDRGGGGGGGRYDRGGGGGGGGGGGNVQPRDGDWKCNSCNNTNFAWRNECNRCKTPKGDDEGSSGGGGGGGYGGGGGGGGYDRGNDRGSGGGGYHNRDRGGNSQGGGGGGGGGGGYSRFNDNNGGGRGGRGGGGGNRRDGGPMRNDGGMRSRPY",binds
3,"Regulatory particle non-ATPase 7 (protein, UniProt Q9V3G7 1-389) MPAENLEEQGLEKNPNLELAQTKFLLTLAEYKQDAALKAKLLEAIRTENMAPWYEHICSELGWTVDKDLLARMKENNRVEVEQLDAAIEDAEKNLGEMEVREANLKKSEYLCRIGDKAAAETAFRKTYEKTVSLGHRLDIVFHLIRLGLFYLDHDLITRNIDKAKYLIEEGGDWDRRNRLKVYQGVYSVAVRDFKAAATFFLDTVSTFTSYELMDYPTFVRYTVYVAMIALPRNELRDKVIKGSEIQEVLHGLPDVKQFLFSLYNCQYENFYVHLAGVEKQLRLDYLIHPHYRYYVREMRILGYTQLLESYRSLTLQYMAESFGVTVEYIDQELARFIAAGRLHAKVDRVGGIVETNRPDNKNWQYQATIKQGDLLLNRIQKLSRVINI",binds
4,"Walrus (protein, UniProt Q7KN94 20-330) STLVVAEHNNEVLNPITLNTISAAKKIGGDVTVLVAGTKCGPASEALSKVDGVTKVLVAENAAFNGFTAESLTPLVLAAQSQFKFTHILAGASAFGKNVLPRVAAKLDVSPISEIIDVKSDDTFVRTIYAGNAILTLKSKDAVKVITVRSTNFPPAATSGGSGAVEQAPAGDFASSLSEFVSQELTKSDRPELAGAKVIVSGGRGLKSGDNFKLLYDLADKFGAAVGASRAAVDAGFVPNDLQIGQTGKIVAPELYIAVGISGAIQHLAGMKDSKTIVAINKDPEAPIFQVADIGIVADLFKAVPELTGKL",binds
5,"Innexin 2 (protein, UniProt Q9V427 1-367) MFDVFGSVKGLLKIDQVCIDNNVFRMHYKATVIILIAFSLLVTSRQYIGDPIDCIVDEIPLGVMDTYCWIYSTFTVPERLTGITGRDVVQPGVGSHVEGEDEVKYHKYYQWVCFVLFFQAILFYVPRYLWKSWEGGRLKMLVMDLNSPIVNDECKNDRKKILVDYFIGNLNRHNFYAFRFFVCEALNFVNVIGQIYFVDFFLDGEFSTYGSDVLKFTELEPDERIDPMARVFPKVTKCTFHKYGPSGSVQTHDGLCVLPLNIVNEKIYVFLWFWFIILSIMSGISLIYRIAVVAGPKLRHLLLRARSRLAESEEVELVANKCNIGDWFLLYQLGKNIDPLIYKEVISDLSREMSGDEHSAHKRPFDA",binds

# No constants are given. Whether binding was seen depends on the method and setting. Binding seen in cells or lysates may run through a third protein. These calls come from enrichment with a bait or labelling near it, and not all partners need be listed.
